The results in this text go back to PubChem BioAssay AID1487 (National Center for Advancing Translational Sciences (NCATS), 2009).

As usually defined, the AC50 is the concentration at which the activity in the assay is half-maximal.

Values joined by “and” are separate entries in the source; they are usually repeats but may differ in a detail not shown here. Equal entries are not always repeated. Some of the results follow. The main result of the screen is listed elsewhere. These columns were measured beside it and carry no call. Most of these compounds were active or inconclusive in the main read-out, so they are no random draw. The note in brackets gives the kind of curve behind each potency; many fits are weak.

The experiment can be described thus: qHTS Assay for Modulators of Lamin A Splicing. The following applies: HeLa LMNA splicing GFP/RFP minigene ratio, 48 h. The method, boiled down: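 Read-out is the ratio of GFP to DsRed2 object intensity, acquired by 488 nm laser-scanning cytometry on HeLa lamin A-EGFP minigene reporter cells. Compound incubation 48 hrs at 37 °C in Opti-MEM with 2% FBS; DMSO 0.5% final.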

[1] abbreviates: measured here: RFP viability control channel.
Where [2] appears, read: measured here: GFP splicing reporter channel.

As to `CCOC(=O)c1sc(Nc2nc(C)cc(OC)n2)nc1C`, the AC50 under setting [1] was 22.4 µM [falling, partial curve, poor fit].

Turning to `COc1ccc(CNC(=O)CNS(=O)(=O)c2ccc(Cl)cc2)cc1`, the AC50 under setting [1] was 10 µM [rising, single point].

Take `CC(/C=C1\SC(=O)N(CC(=O)Nc2cccc(O)c2)C1=O)=C\c1ccccc1`: the AC50 under setting [1] was 25.1 µM [rising, single point].

Consider `O=C(CC(O)(C(F)(F)F)C(F)(F)F)Nc1ccc(Cl)c(Cl)c1`, for which the AC50 under setting [2] was 7.08 µM [rising, full curve, poor fit] and the AC50 under setting [1] was 6.31 µM [rising, full curve].

Turning to `COc1cc2c(cc1OC)C(C)N(C(=O)c1cc3ccccc3o1)CC2` (stereo not given), the AC50 under setting [2] is 3.98 µM [falling, full curve].

For `Cc1cccc(-c2nsc(SCC(=O)Nc3ccc4c(c3)OCO4)n2)c1`, under setting [1], the AC50 is 20 µM [rising, single point].

Turning to `Cc1nn(Cc2ccc(Cl)cc2)c(C)c1NC(=O)CSc1nc2c(c(C(F)(F)F)n1)CCc1ccccc1-2`, under setting [1], the AC50 was 22.4 µM [falling, partial curve].

For the compound `CCc1ccc2oc(-c3cccc(NC(=O)c4cccnc4)c3)nc2c1`, the half-maximal activity concentration (AC50) under setting [2] is 35.5 µM [rising, single point].

On to `Cc1ccc(CNC(=O)Cn2ccn(-c3ccc(F)c(F)c3)c(=O)c2=O)cc1`, for which, under setting [1], the AC50 was 11.2 µM [falling, partial curve].

On to `CCOc1ccc(C(=O)Nc2ccc(C(=O)OCc3cc(=O)n4c(C)csc4n3)cc2)cc1`, for which the AC50 reads like this: under setting [2], 35.5 µM [falling, single point]; under setting [1], 35.5 µM [falling, single point].

In the case of `CC1CCN(C(=O)c2cc(-c3ccc(Cl)c(Cl)c3)on2)CC1`, the AC50 under setting [1] is 35.5 µM [rising, single point].

Take `CC1(C)CC(CC(=O)Nc2nccs2)(c2ccccc2)CCO1` (stereo not given): the AC50 was 2.82 µM [falling, partial curve, poor fit] under setting [2] and 0.0447 µM [falling, full curve, poor fit] under setting [1].

For the compound `CCCc1cc(=O)oc2cc(C)c3c(C)coc3c12`, the AC50 under setting [2] was 1.58 µM [rising, full curve, poor fit].

`CCCCn1c(N(CCOC(C)=O)C(C)=O)nc2ccccc21`: the AC50 under setting [1] is 12.6 µM [rising, partial curve].

Consider `COc1ccccc1OCCNCC(O)COc1cccc2[nH]c3ccccc3c12` (stereo not given), for which the AC50 is 7.94 µM [falling, partial curve] under setting [2] and 8.91 µM [rising, partial curve, poor fit] under setting [1].

As for `COc1ccc(C2C(C#N)=C(N)Oc3cc4c(cc32)OCO4)cc1` (stereo not given), the AC50 under setting [1] was 31.6 µM [rising, single point].

Regarding `CSc1cccc(NC(=S)N2CCCN(Cc3ccccc3F)C2)c1`, the AC50 under setting [1] was 4.47 µM [falling, full curve].

With `Oc1ccccc1Cn1c(-c2ccccc2O)nc2ccccc21`, the AC50 is 12.6 µM [rising, partial curve] under setting [2] and 20 µM [rising, single point] under setting [1].

As to `CN(C)S(=O)(=O)c1cc(NC(=O)CN2CCOCC2)ccc1Cl`, under setting [1], the AC50 is 3.98 µM [falling, single point].

As for `Cc1cc(NC(=O)C2CCCN(S(=O)(=O)c3cn(C)cn3)C2)ccc1Br` (stereo not given), the AC50 reads like this: under setting [2], 25.1 µM [falling, single point]; under setting [1], 35.5 µM [falling, single point].

In the case of `Cc1nc(NC(C)C)c2oc3ccccc3c2n1`, the AC50 under setting [2] is 15.8 µM [rising, partial curve, poor fit] and the concentration at half-maximal activity (AC50) under setting [1] was 14.1 µM [rising, partial curve].

In the case of `O=C(Nc1ccc(N2CCOCC2)cc1)C1CCCN(S(=O)(=O)c2ccccc2)C1` (stereo not given), the AC50 under setting [1] was 11.2 µM [rising, partial curve].

Consider `C/C(=N\NC(=O)COc1ccc(C)cc1[N+](=O)[O-])c1cccs1`, for which, under setting [1], the AC50 was 0.126 µM [rising, single point].

Consider `Cc1nnc(SCC(=O)Nc2sc3c(c2C(=O)c2ccccc2)CCCC3)s1`, for which, under setting [1], the AC50 is 31.6 µM [rising, single point].

Regarding `CC(=O)c1c[nH]c2ccc(C)cc2c1=O`, the AC50 under setting [2] was 35.5 µM [rising, single point].

Take `Cc1cc(C)c(C)c(S(=O)(=O)N2CCN(C(=O)c3cc(=O)[nH]c4ccccc34)CC2)c1C`: the AC50 under setting [2] was 2.51 µM [falling, full curve, poor fit] and the AC50 under setting [1] is 3.55 µM [falling, partial curve, poor fit].

`Cc1ccc(NCc2nnc(SCC(=O)Nc3ncc(C)s3)n2CC2CCCO2)c(C)c1` (stereo not given): the AC50 by setting is: under setting [2], 6.31 µM [rising, partial curve]; under setting [1], 11.2 µM [rising, single point].

In the case of `CCOc1ccc(NC(=O)c2c(NCc3cccs3)sc3c2CCCCC3)cc1`, under setting [2], the AC50 was 35.5 µM [falling, single point].

Regarding `O=C(CC1C(=O)NCCN1Cc1cccc(Oc2ccccc2)c1)NCCc1ccncc1` (stereo not given), under setting [2], the AC50 is 5.62 µM [rising, single point].

Regarding `COCCn1c(SCC(=O)Nc2nc(C)c(Cl)cc2Cl)nc2ccccc21`, the concentration at half-maximal activity (AC50) is, setting by setting: under setting [2], 25.1 µM [rising, single point]; under setting [1], 35.5 µM [rising, single point].

Consider `O=[N+]([O-])c1ccc(S(=O)(=O)CC2CSc3nc4ccccc4n32)cc1` (stereo not given), for which the AC50 by setting is: under setting [2], 1.78 µM [rising, full curve]; under setting [1], 3.55 µM [rising, full curve].

`CC(C)Cn1c(C(C)C)nc([N+](=O)[O-])c1S(=O)(=O)c1ccc(F)cc1`: the AC50 under setting [2] is 31.6 µM [falling, single point] and the AC50 under setting [1] is 35.5 µM [falling, single point].

Regarding `O=C(c1cccc(S(=O)(=O)N2CCc3ccccc3C2)c1)N1CCN(c2ccc(O)cc2)CC1`, the AC50 under setting [2] was 0.891 µM [rising, partial curve].

For the compound `Cc1ccc(S(=O)(=O)N/N=C\c2ccc(Cl)c([N+](=O)[O-])c2)cc1`, under setting [1], the AC50 was 10 µM [rising, partial curve].

As for `O=c1c2c3c(sc2n(CCN2CCOCC2)c(=O)n1Cc1ccco1)CCCCC3`, the AC50 under setting [2] was 0.112 µM [rising, full curve].

`O=C(NCC1CCCCN1)c1cc(OCC(F)(F)F)ccc1OCC(F)(F)F` (stereo not given): the AC50 runs as follows: under setting [2], 0.0112 µM [falling, full curve, poor fit]; under setting [1], 1.26 µM [rising, partial curve, poor fit] and 12.6 µM [rising, single point].

On to `O=c1cc(CO)[nH]cc1OCc1ccccc1`, for which the AC50 under setting [2] was 0.316 µM [rising, full curve, poor fit].

As to `O=C(NCCc1ccc(Cl)cc1)c1ccc(CSCc2ccc(Cl)cc2)o1`, under setting [1], the AC50 is 35.5 µM [rising, single point].

Consider `CCN(CC)S(=O)(=O)c1ccc(Oc2cccc(C(C)=O)c2)nc1`, for which the AC50 under setting [2] was 5.62 µM [rising, partial curve, poor fit].

As to `COc1ccc(N2CCN(C(=O)Nc3ccccc3Cl)CC2)cc1`, the AC50 under setting [1] was 0.0224 µM [falling, full curve, poor fit].

Take `CCCC(=O)n1nc(-c2cccnc2)nc1NCc1ccccc1`: the AC50 under setting [1] was 0.0112 µM [falling, full curve, poor fit].

Consider `CN(C)C(=S)Nc1nc2ccccc2s1`, for which the AC50 runs as follows: under setting [2], 22.4 µM [falling, partial curve]; under setting [1], 0.126 µM [falling, full curve].

Take `COCCNC(=O)NC(=O)CSc1nc(C)c(C)c(C)n1`: the AC50 under setting [2] was 35.5 µM [falling, single point].

Turning to `Cc1nn(Cc2ccccc2)c(Cl)c1C(=O)NCCc1ccc(Cl)cc1`, the AC50 under setting [2] is 31.6 µM [rising, single point] and the AC50 under setting [1] is 35.5 µM [rising, single point].

In the case of `O=C(NCc1cccnc1)c1c[nH]c2cc3c(cc2c1=O)OCCO3`, the AC50 by setting is: under setting [2], 1.12 µM [rising, full curve]; under setting [1], 3.16 µM [rising, full curve].

With `C=CCNc1nc2c(c(=O)n(C)c(=O)n2C)n1CCCCCC`, the AC50 by setting is: under setting [2], 2.24 µM [rising, partial curve, poor fit]; under setting [1], 3.16 µM [rising, full curve].

As for `CCOC(=O)c1c(C)n(CCO)c2ccc(O)cc12`, under setting [1], the AC50 is 5.62 µM [rising, single point].

For `COCCNC(=O)/C(C#N)=C/c1ccc(C(=O)O)cc1`, the AC50 under setting [1] is 0.00447 µM [falling, full curve, poor fit].

For `COc1ccc(-n2c(O)c(/C=N/NS(=O)(=O)c3ccc(C)cc3)c3ccccc3c2=O)cc1OC`, the AC50 under setting [1] is 8.91 µM [rising, partial curve].

Turning to `CCOC(=O)c1c(NC(=O)COc2cccc3c2CCN(C)C3=O)sc2c1CCC2`, the AC50 runs as follows: under setting [2], 8.91 µM [rising, partial curve, poor fit]; under setting [1], 12.6 µM [rising, partial curve].

With `CCOc1ccccc1Nc1nnc(SCC(=O)Nc2cccc(S(=O)(=O)NC3=NCCCCC3)c2)s1`, the AC50 by setting is: under setting [2], 2.51 µM [rising, full curve]; under setting [1], 11.2 µM [rising, partial curve].

Turning to `COc1nccnc1NS(=O)(=O)c1ccc(NC(=S)NC(=O)c2ccc(F)c(F)c2)cc1`, the AC50 under setting [2] was 3.98 µM [falling, partial curve].

For `CC(C)(C)c1ccc(Cn2cnc(-c3ccc([N+](=O)[O-])cc3)c2)cc1`, the AC50 under setting [1] was 35.5 µM [rising, single point].

Turning to `Cn1c(CSCc2ccc(Cl)c(Cl)c2)n[nH]c1=S`, the AC50 under setting [2] was 0.708 µM [rising, full curve, poor fit].

Turning to `O=C1N/C(=N\N=C\c2cccs2)SC1Cc1ccc(Cl)cc1Cl` (stereo not given), the AC50 under setting [1] was 5.01 µM [rising, full curve].

On to `CCC(=O)Nc1ccc2oc(-c3ccccc3Br)nc2c1`, for which, under setting [1], the AC50 was 0.0708 µM [falling, full curve, poor fit].
